The source of these data is US20130058960A1 (Genentech, published 2013).

No constants are given. Whether binding was seen depends on the method and setting. Some binding calls cover weakened binding; strength is not graded here.

Assay [1] has as its target T1, TAT425 polypeptide (Homo sapiens (Human)) (UniProt O15439).
T1 sequence: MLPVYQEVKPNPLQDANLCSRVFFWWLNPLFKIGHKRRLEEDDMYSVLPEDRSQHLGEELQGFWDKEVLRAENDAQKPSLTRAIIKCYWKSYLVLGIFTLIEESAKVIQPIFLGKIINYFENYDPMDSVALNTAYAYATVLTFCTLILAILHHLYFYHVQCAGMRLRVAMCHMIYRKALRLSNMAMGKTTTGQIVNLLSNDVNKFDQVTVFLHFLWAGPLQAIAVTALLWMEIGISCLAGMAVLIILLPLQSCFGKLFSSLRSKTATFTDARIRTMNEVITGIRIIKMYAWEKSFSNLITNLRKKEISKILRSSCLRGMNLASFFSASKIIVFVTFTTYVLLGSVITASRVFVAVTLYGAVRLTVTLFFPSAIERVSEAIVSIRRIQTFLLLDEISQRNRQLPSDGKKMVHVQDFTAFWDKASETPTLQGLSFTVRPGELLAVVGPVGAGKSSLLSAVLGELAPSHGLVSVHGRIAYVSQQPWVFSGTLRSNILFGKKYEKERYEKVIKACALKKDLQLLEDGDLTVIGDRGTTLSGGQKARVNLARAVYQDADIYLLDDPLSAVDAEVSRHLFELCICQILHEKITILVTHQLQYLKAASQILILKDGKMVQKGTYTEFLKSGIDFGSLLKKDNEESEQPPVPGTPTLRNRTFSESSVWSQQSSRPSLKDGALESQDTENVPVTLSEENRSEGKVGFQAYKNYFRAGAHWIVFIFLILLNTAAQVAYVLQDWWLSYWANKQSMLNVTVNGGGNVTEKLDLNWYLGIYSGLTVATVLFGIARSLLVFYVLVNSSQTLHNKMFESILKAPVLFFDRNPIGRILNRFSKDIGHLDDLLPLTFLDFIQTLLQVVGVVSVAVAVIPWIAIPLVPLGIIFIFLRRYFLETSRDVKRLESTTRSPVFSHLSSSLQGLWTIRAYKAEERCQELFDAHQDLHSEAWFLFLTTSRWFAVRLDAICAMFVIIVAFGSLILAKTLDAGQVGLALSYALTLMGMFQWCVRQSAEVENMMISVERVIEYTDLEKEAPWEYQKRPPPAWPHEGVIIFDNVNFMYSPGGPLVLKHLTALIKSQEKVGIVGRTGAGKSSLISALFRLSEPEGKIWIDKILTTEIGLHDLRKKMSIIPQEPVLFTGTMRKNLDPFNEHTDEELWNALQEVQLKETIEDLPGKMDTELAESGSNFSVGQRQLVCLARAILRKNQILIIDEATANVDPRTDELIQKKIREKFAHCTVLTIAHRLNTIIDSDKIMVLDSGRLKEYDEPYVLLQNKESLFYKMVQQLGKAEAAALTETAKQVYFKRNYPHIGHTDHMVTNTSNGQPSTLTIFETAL
Put plainly: competitive binding experiment, details not given.

For assay [2], the target named is T1, TAT425 polypeptide (Homo sapiens (Human)). Put plainly: Western blot, ELISA, FACS and/or immunohistochemistry on cells expressing TAT425.

B1: anti-TAT425 monoclonal antibody 4D11.17.2 (antibody, V domains shown)
VH: EVQLQQSGPELVKPGASVKMSCKASGYTFTDYYMKWVKQSLGEGLEWIGDINPYNGDTFYNKKFKGKASLTVDKSSTTAYMDLNSLTSEDSAVYFCARLGEMAYFDYWGQGTSLTVSS
VL: DVLMTQTPLSLPVSLGDQASISCRSSQSIVHSNGNTYLDWYLQKPGQSPKLLIYKVSNRFSGVPDRFSGSGSGTDFTLKISRVEAEDLGVYYCFQGSHVPWTFGGGTKLEIKR
For the molecule B1, the binding result in assay [1] and in assay [2] was “binds” in each case.
